Measurements published in publication PMC8213057, “Targeting ALK2: An Open Science Approach to Developing Therapeutics for the Treatment of Diffuse Intrinsic Pontine Glioma” (Journal of Medicinal Chemistry, 2020).

By UniProt entry, the sequences of proteins in these tests, tags left out. Where a name states a change or a piece, a line headed by the entry shows the natural chain unless it says otherwise.
UniProt Q9Y3S1, whole entry, species assumed: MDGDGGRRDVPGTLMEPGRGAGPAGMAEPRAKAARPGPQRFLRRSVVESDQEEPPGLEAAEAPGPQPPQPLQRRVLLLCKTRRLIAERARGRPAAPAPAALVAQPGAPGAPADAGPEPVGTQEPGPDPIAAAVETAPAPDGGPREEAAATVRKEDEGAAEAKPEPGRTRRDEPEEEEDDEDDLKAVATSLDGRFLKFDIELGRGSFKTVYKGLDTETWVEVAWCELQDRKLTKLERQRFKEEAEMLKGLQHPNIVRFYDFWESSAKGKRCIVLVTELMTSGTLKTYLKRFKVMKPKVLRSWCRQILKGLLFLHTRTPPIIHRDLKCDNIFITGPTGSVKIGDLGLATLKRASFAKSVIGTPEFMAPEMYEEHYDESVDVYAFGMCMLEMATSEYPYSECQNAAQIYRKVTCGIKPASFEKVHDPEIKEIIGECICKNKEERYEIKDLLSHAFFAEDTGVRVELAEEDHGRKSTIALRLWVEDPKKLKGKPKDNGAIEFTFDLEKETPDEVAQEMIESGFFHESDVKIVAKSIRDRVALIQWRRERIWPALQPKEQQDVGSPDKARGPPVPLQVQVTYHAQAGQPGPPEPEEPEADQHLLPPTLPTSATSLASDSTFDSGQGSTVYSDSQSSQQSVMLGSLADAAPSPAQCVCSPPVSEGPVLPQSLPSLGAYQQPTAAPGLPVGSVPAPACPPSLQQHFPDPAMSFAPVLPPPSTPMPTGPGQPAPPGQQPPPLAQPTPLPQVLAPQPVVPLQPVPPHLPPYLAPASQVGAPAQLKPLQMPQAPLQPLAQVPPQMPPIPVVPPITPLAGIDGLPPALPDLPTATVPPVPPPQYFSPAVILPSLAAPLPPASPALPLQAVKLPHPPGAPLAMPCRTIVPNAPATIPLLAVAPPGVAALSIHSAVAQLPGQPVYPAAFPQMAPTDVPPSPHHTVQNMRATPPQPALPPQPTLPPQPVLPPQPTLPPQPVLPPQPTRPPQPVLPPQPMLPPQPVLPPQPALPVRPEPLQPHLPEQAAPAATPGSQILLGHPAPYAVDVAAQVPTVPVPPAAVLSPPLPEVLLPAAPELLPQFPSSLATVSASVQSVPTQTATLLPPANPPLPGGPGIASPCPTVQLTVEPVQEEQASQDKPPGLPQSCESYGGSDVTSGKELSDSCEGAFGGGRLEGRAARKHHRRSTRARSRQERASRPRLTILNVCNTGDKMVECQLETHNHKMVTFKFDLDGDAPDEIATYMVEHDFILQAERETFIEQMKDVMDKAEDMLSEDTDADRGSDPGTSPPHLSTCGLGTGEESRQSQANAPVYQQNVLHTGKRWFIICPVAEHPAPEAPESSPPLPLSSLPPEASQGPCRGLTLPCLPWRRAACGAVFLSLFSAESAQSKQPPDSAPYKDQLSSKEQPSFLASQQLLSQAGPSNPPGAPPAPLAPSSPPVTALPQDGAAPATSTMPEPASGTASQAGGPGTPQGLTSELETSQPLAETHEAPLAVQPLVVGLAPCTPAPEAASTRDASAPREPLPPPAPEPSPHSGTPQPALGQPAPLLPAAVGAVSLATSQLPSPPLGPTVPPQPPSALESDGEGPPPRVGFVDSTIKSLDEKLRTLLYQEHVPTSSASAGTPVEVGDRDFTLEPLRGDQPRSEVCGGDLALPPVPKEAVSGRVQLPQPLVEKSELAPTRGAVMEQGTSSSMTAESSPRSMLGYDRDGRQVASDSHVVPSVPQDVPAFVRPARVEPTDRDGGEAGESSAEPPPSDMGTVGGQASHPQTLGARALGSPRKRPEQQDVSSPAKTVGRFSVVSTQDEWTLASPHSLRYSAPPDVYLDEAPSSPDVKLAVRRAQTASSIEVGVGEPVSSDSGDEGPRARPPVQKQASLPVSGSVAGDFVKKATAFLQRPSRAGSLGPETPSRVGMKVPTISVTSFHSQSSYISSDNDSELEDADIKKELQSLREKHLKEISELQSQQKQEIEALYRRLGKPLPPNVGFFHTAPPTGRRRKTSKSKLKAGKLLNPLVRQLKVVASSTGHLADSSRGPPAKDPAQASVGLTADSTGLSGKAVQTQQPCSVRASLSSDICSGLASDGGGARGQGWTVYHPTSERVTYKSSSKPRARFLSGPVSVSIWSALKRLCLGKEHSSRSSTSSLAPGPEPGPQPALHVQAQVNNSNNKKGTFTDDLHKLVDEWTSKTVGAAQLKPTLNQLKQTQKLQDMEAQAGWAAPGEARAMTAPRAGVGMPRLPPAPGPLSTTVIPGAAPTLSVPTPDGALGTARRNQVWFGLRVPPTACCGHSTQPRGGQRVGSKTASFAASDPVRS
UniProt P27361, whole entry: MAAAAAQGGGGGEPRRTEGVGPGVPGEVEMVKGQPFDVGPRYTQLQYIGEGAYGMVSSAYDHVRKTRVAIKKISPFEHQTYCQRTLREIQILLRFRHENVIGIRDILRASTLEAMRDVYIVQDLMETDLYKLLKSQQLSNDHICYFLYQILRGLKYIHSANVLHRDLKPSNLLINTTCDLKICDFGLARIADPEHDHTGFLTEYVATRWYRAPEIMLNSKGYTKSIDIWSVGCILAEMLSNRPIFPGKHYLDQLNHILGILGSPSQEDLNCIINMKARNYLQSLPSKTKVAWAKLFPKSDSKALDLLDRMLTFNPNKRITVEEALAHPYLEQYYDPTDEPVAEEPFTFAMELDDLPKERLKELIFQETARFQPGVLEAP
UniProt Q9Y5S2: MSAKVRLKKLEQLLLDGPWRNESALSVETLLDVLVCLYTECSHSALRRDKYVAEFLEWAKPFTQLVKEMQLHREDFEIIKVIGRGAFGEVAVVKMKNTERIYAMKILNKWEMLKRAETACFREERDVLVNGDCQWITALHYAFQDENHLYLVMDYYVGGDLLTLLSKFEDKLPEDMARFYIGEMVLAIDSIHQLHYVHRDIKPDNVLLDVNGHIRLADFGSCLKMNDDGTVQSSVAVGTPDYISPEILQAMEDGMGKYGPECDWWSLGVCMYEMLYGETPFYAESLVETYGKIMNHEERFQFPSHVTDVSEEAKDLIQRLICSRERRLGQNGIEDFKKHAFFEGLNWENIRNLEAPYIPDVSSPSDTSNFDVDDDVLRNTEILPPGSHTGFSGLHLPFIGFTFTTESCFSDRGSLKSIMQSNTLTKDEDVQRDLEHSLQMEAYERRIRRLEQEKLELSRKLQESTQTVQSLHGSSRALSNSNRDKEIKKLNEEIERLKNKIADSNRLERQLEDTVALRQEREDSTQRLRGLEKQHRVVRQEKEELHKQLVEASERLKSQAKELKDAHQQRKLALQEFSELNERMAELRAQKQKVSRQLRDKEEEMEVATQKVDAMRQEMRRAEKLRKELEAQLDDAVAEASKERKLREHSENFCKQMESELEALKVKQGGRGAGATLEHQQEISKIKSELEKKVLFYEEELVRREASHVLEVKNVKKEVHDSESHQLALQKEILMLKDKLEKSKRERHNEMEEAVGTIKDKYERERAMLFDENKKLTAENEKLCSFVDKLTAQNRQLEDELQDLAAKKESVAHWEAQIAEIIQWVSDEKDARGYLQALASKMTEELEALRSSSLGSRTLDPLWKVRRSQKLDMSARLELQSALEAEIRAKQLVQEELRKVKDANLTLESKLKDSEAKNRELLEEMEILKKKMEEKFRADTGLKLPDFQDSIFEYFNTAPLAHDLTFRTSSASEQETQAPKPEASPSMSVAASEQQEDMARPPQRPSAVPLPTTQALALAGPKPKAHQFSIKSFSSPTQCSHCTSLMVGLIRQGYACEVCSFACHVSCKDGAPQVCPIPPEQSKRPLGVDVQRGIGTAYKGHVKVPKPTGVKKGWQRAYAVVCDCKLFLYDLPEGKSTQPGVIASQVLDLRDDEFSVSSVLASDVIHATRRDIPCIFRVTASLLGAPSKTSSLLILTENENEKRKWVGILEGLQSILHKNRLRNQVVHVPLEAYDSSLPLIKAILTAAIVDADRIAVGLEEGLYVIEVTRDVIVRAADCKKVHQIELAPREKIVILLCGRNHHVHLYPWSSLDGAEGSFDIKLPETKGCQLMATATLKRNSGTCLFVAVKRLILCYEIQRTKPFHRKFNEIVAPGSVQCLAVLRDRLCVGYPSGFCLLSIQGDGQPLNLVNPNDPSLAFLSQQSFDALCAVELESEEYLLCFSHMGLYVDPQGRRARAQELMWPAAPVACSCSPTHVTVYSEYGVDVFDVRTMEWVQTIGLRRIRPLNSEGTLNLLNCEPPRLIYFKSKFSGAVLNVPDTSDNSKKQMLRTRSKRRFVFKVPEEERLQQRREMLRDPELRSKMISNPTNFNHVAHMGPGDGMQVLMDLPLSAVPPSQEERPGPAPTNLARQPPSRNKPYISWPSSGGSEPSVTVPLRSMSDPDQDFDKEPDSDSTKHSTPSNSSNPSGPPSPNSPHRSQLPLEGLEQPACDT
UniProt Q96PY6: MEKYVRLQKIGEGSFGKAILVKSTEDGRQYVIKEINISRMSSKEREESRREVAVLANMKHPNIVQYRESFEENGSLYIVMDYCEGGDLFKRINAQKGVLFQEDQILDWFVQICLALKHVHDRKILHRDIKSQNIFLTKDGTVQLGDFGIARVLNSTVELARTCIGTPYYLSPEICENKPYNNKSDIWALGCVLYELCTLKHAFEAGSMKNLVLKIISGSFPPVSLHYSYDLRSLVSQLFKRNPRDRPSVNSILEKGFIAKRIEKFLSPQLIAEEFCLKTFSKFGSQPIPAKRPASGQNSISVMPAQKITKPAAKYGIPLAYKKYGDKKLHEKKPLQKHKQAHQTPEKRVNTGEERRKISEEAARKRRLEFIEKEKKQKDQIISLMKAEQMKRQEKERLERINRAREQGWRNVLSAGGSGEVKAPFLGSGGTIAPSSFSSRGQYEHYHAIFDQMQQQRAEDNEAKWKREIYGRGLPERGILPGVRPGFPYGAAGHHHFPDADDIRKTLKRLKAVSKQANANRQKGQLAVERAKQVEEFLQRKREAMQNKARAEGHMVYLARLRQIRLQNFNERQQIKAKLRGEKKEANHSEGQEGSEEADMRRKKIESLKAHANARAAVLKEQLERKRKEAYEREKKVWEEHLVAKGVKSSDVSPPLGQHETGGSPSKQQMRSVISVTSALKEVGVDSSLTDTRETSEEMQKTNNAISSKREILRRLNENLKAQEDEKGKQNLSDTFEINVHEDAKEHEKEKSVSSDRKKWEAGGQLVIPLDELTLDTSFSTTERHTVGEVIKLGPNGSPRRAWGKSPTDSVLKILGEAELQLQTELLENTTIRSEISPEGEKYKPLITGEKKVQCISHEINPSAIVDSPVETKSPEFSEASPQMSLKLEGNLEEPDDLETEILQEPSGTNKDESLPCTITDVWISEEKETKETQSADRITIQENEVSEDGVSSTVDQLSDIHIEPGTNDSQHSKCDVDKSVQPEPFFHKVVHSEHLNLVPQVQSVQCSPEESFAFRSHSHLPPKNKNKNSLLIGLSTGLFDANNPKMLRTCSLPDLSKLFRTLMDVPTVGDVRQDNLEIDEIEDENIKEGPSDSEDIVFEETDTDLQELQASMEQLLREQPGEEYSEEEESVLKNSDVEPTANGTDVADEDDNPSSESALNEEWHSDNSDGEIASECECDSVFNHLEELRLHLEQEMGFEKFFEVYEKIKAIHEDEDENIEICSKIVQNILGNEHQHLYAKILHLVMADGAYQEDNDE
UniProt Q9UHD2: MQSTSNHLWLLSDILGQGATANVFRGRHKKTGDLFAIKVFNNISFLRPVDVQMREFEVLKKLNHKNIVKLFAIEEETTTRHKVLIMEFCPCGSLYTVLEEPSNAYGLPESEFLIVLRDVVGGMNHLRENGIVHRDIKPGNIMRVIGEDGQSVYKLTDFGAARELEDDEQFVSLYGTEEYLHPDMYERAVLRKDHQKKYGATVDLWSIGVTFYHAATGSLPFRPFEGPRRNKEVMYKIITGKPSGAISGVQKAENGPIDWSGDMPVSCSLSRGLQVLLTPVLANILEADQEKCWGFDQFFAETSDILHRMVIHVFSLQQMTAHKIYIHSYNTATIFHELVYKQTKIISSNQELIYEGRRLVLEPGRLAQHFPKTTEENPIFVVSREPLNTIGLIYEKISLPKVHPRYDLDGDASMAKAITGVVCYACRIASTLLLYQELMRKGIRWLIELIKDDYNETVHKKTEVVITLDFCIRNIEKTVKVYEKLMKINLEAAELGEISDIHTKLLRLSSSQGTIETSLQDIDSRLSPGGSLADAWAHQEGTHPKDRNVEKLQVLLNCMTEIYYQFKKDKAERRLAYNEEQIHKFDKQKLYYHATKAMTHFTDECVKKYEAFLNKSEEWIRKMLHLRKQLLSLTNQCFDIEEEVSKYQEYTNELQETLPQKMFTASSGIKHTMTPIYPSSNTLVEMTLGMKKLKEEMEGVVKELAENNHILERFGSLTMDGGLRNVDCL

What was measured:
JNK3 = JNK3 (Homo sapiens, UniProt P53779); details: 1 μM; Run 1, Run 2
GRK2 = GRK2 (Homo sapiens, UniProt P25098); test: biochemical; details: read-out: % enzyme activity, 1 μM; Run 1, Run 2
AXL = AXL (Homo sapiens, UniProt P30530); details: 1 μM; Run 1, Run 2
CK1G3 [1] = target: T1, CK1G3 (Homo sapiens, UniProt Q9Y6M4); details: 1 μM; Run 1, Run 2
FLT4/VEGFR3 [2] = target: T2, FLT4/VEGFR3 (Homo sapiens, UniProt P35916); details: 1 μM; Run 1, Run 2
CHK1 = CHK1 (Homo sapiens, UniProt O14757); test: biochemical; details: read-out: % enzyme activity, 1 μM; Run 1, Run 2
CK2a = CK2a (Homo sapiens, UniProt P68400); test: biochemical; details: read-out: % enzyme activity, 1 μM; Run 1, Run 2
WNK2 = WNK2 (Homo sapiens, UniProt Q9Y3S1); details: 1 μM; Run 1, Run 2
PHKg2 = PHKg2 (Homo sapiens, UniProt P15735); details: 1 μM; Run 1, Run 2
CK1d = CK1d (Homo sapiens, UniProt P48730); test: biochemical; details: read-out: % enzyme activity, 1 μM; Run 1, Run 2
TESK2 = TESK2 (Homo sapiens, UniProt Q96S53); test: biochemical; details: read-out: % enzyme activity, 1 μM; Run 1, Run 2
ERK1 = ERK1 (Homo sapiens, UniProt P27361); details: 1 μM; Run 1, Run 2
MRCKb/CDC42BPB = MRCKb/CDC42BPB (Homo sapiens, UniProt Q9Y5S2); test: biochemical; details: read-out: % enzyme activity, 1 μM; Run 1, Run 2
MSK2/RPS6KA4 = MSK2/RPS6KA4 (Homo sapiens, UniProt O75676); test: biochemical; details: read-out: % enzyme activity, 1 μM; Run 1, Run 2
HPK1/MAP4K1 = HPK1/MAP4K1 (Homo sapiens, UniProt Q92918); details: 1 μM; Run 1, Run 2
CAMKK2 = CAMKK2 (Homo sapiens, UniProt Q96RR4); details: 1 μM; Run 1, Run 2
CDK6/cyclin D1 = CDK6/cyclin D1 (Homo sapiens, UniProt Q00534); details: 1 μM; Run 1, Run 2
AURORA B = AURORA B (Homo sapiens, UniProt Q96GD4); test: biochemical; details: read-out: % enzyme activity, 1 μM; Run 1, Run 2
PLK2 = PLK2 (Homo sapiens, UniProt Q9NYY3); details: 1 μM; Run 1, Run 2
NEK1 = NEK1 (Homo sapiens, UniProt Q96PY6); details: 1 μM; Run 1, Run 2
CAMK2g = CAMK2g (Homo sapiens, UniProt Q13555); test: biochemical; details: read-out: % enzyme activity, 1 μM; Run 1, Run 2
Haspin = Haspin (Homo sapiens, UniProt Q8TF76); details: 1 μM; Run 1, Run 2
ACK1 = ACK1 (Homo sapiens, UniProt Q07912); test: biochemical; details: read-out: % enzyme activity, 1 μM; Run 1, Run 2
CDK9/cyclin T2 = CDK9/cyclin T2 (Homo sapiens, UniProt P50750); test: biochemical; details: read-out: % enzyme activity, 1 μM; Run 1, Run 2
CDK2/cyclin O = CDK2/cyclin O (Homo sapiens, UniProt P24941); test: biochemical; details: read-out: % enzyme activity, 1 μM; Run 1, Run 2
TRKA = TRKA (Homo sapiens, UniProt P04629); test: biochemical; details: read-out: % enzyme activity, 1 μM; Run 1, Run 2
PIM1 = PIM1 (Homo sapiens, UniProt P11309); details: 1 μM; Run 1, Run 2
STK38/NDR1 = STK38/NDR1 (Homo sapiens, UniProt Q15208); test: biochemical; details: read-out: % enzyme activity, 1 μM; Run 1, Run 2
TBK1 = TBK1 (Homo sapiens, UniProt Q9UHD2); details: 1 μM; Run 1, Run 2
FLT4/VEGFR3 [3] = target: T2, FLT4/VEGFR3; test: biochemical; details: read-out: % enzyme activity, 1 μM; Run 1, Run 2
DMPK2 = DMPK2 (Homo sapiens, UniProt Q6DT37); details: 1 μM; Run 1, Run 2
RIPK3 = RIPK3 (Homo sapiens, UniProt Q9Y572); details: 1 μM; Run 1, Run 2
MARK2/PAR-1Ba = MARK2/PAR-1Ba (Homo sapiens, UniProt Q7KZI7); details: 1 μM; Run 1, Run 2
JAK1 = JAK1 (Homo sapiens, UniProt P23458); details: 1 μM; Run 1, Run 2
LATS2 = LATS2 (Homo sapiens, UniProt Q9NRM7); details: 1 μM; Run 1, Run 2
NEK6 = NEK6 (Homo sapiens, UniProt Q9HC98); test: biochemical; details: read-out: % enzyme activity, 1 μM; Run 1, Run 2
CK1G3 [4] = target: T1, CK1G3; test: biochemical; details: read-out: % enzyme activity, 1 μM; Run 1, Run 2
CAMK1d = CAMK1d (Homo sapiens, UniProt Q8IU85); test: biochemical; details: read-out: % enzyme activity, 1 μM; Run 1, Run 2
PKCeta = PKCeta (Homo sapiens, UniProt P24723); details: 1 μM; Run 1, Run 2
PAK6 = PAK6 (Homo sapiens, UniProt Q9NQU5); details: 1 μM; Run 1, Run 2
DDR2 = DDR2 (Homo sapiens, UniProt Q16832); details: 1 μM; Run 1, Run 2
WNK3 = WNK3 (Homo sapiens, UniProt Q9BYP7); test: biochemical; details: read-out: % enzyme activity, 1 μM; Run 1, Run 2
FGR = FGR (Homo sapiens, UniProt P09769); details: 1 μM; Run 1, Run 2

COc1cc(-c2cncc(-c3ccc(N4CCN(C(C)C)CC4)cc3)c2C)cc(F)c1C(N)=O [Compound 26b, 2-Fluoro-4-(5-(4-(4-isopropylpiperazin-1-yl)phenyl)-4-methylpyridin-3-yl)-6-methoxybenzamide]
% enzyme activity (JNK3): 95.11% | remaining activity at 1 µM (GRK2): 106% | % enzyme activity (AXL): 81.04% | % enzyme activity (CK1G3 [1]): 69.81% | % enzyme activity (FLT4/VEGFR3 [2]): 96.06% | remaining activity at 1 µM (CHK1): 106% | remaining activity at 1 µM (CK2a): 88.7% | % enzyme activity (WNK2): 98.34% | % enzyme activity (PHKg2): 95.06% | remaining activity at 1 µM (CK1d): 100% | remaining activity at 1 µM (TESK2): 93.3% | % enzyme activity (ERK1): 97.39% | remaining activity at 1 µM (MRCKb/CDC42BPB): 97% | remaining activity at 1 µM (MSK2/RPS6KA4): 96% | % enzyme activity (HPK1/MAP4K1): 55.64% | % enzyme activity (CAMKK2): 79.29% | % enzyme activity (CDK6/cyclin D1): 100.82% | remaining activity at 1 µM (AURORA B): 112% | % enzyme activity (PLK2): 92.87% | % enzyme activity (NEK1): 93.20% | remaining activity at 1 µM (CAMK2g): 96.3% | % enzyme activity (Haspin): 83.53% | remaining activity at 1 µM (ACK1): 66.8% | remaining activity at 1 µM (CDK9/cyclin T2): 102% | remaining activity at 1 µM (CDK2/cyclin O): 92.3% | remaining activity at 1 µM (TRKA): 91.9% | % enzyme activity (PIM1): 103.63% | remaining activity at 1 µM (STK38/NDR1): 91.5% | % enzyme activity (TBK1): 83.46% | remaining activity at 1 µM (FLT4/VEGFR3 [3]): 96.8% | % enzyme activity (DMPK2): 85.28% | % enzyme activity (RIPK3): 111.71% | % enzyme activity (MARK2/PAR-1Ba): 92.98% | % enzyme activity (JAK1): 96.26% | % enzyme activity (LATS2): 109.35% | remaining activity at 1 µM (NEK6): 101% | remaining activity at 1 µM (CK1G3 [4]): 71.5% | remaining activity at 1 µM (CAMK1d): 101% | % enzyme activity (PKCeta): 96.60% | % enzyme activity (PAK6): 98.70% | % enzyme activity (DDR2): 91.94% | remaining activity at 1 µM (WNK3): 92.1% | % enzyme activity (FGR): 91.32%
